Here are results for two molecules from patent US20230270832A1, “MAGEA1 IMMUNOGENIC PEPTIDES, BINDING PROTEINS RECOGNIZING MAGEA1 IMMUNOGENIC PEPTIDES, AND USES THEREOF” (TScan Therapeutics, Inc., priority 2021, published 2023).

The test concerns the target MAGEA1 peptide VRFFFPSL (SEQ ID NO: 1) presented by HLA-C*07:02 (human). The test can be described thus: told of the functional T cell screens of the Examples; no direct binding assay was done.

Results are given in words; binding and its absence hold for the method and conditions named. Some results given as binding are weak or reduced against the parent protein; the word gives no strength.

B1: MAGEA1 TCR 32-41 (TCR, V domains shown)
V domain 1: QLLEQSPQFLSIQEGENLTVYCNSSSVFSSLQWYRQEPGEGPVLLVTVVTGGEVKKLKRLTFQFGDARKDSSLHITAAQPGDTGLYLCAGDESISYGKLTFGQGTILTVHP
V domain 2: DAGVIQSPRHEVTEMGQEVTLRCKPISGHDYLFWYRQTMMRGLELLIYFNNNVPIDDSGMPEDRFSAKMPNASFSTLKIQPSEPRDSAVYFCASSFLGWNEKLFFGSGTQLSVLE
Regarding B1, the binding entry was “binds”.

B2: MAGEA1 TCR 32-39 (TCR, V domains shown)
V domain 1: DQQVKQNSPSLSVQEGRISILNCDYTNSMFDYFLWYKKYPAEGPTFLISISSIKDKNEDGRFTVFLNKSAKHLSLHIVPSQPGDSAVYFCAASAQNNDMRFGAGTRLTVKP
V domain 2: NAGVMQNPRHLVRRRGQEARLRCSPMKGHSHVYWYRQLPEEGLKFMVYLQKENIIDESGMPKERFSAEFPKEGPSILRIQQVVRGDSAAYFCASSPSYEQYFGPGTRLTVTE
As for B2, the binding entry is “binds”.
